{"source": "paper doi:10.1101/162958", "molecules": {"B1": {"name": "munc-18b (endogenous in MDCK cells) (protein, UniProt Q28288 1-593)", "chain": "MAPSGLKEVVGEKILNGVIRSVKKDGEWKVLIMDHPSMRILSSCCKMSDILAEGITIVEDINKRREPIPSLEAIYLLSPTEKSVQALIADFRGTPTFTYKAAHIFFTDTCPEPLFTELSRSRLAKVVKTLKEIHLAFLPYEAQVFSLDAPHSTYNLYCPFRVGERARQIEALAQQIATLCATLQEYPAIRYRKGPEVTAQLANAVLAKLNAFKADNPSLGEGPEKTRSQLLIVDRGADPVSPLLHELTFQAMAYDLLNIEQDTYRYETTGLSEAREKAVLLDEDDDLWVELRHMHIADVSKKVTELLKTFCESKRLTTDKANIKDLSHILKKMPQYQKELNKYSTHLHLADDCMKHFKGSVEKLCGVEQDLAMGSDTEGEKIKDAMKLIVPVLLDAAVPAYDKIRVLLLYILLRNGVSEENLAKLIQHANVQAHSSLIRNLEQLGGTVTNPGGPGTSSRLERRERLEPTYQLSRWTPVIKDVMEDAVEDRLDRKLWPFVSDPAPTSSSQAAVSARFGHWHKNKAGVEMRAGPRLIIYVMGGVAMSEMRAAYEVTRATDGKWEVLIGSSHILTPTRFLDDLKTLDQKLEDIALP"}}, "target": "T1, C-terminally myc-epitope tagged Stx3 (membrane-anchored Stx3A) (human) (UniProt Q13277)", "T1 sequence": "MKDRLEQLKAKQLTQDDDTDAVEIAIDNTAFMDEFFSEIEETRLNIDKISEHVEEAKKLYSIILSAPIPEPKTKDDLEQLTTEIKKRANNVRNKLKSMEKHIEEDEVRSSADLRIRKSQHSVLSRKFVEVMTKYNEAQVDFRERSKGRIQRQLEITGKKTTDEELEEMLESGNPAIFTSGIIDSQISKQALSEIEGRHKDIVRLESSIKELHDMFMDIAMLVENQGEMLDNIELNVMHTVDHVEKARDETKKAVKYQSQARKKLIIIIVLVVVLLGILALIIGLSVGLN", "assay": "affinity purification with mass spectrometry", "note": "Results are given in words; binding and its absence hold for the method and conditions named. Binding seen in cells or lysates may run through a third protein. These calls come from enrichment with a bait or labelling near it, and not all partners need be listed. Where a sequence is shown, tags or fusion partners need not be part of it."}
{"molecule": "RanBP5 (endogenous in MDCK cells)", "values": [{"measurement": "binding", "result": "binds"}]}
{"molecule": "B1", "values": [{"measurement": "binding", "result": "binds"}]}
